# Test results as given in EP2545915A1, “2-amino-2-oxoethyl trans-3-[5-(6-methoxy-naphtalen-1-yl)-1,3-dioxan-2-yl]propyl-carbamate for use in the treatment of persistent cancer pain” (SANOFI, priority 2011, dated 2013).
# Read-outs that look alike come from different tables or passages of the source.
# Test system: UDP-glucuronosyl transferase
# Settings: morphine 0.1 to 7.5 mM, HLM 0.5 mg/mL, 30 min, Michaelis-Menten
structure (smiles),measurement,setting,value
CN1CC[C@]23c4c5ccc(O)c4O[C@H]2[C@@H](O)C=C[C@H]3[C@H]1C5 [Morphine],Km,read-out: Km (M3G),2.59 mM
same,Km,read-out: Km (M6G),2.11 mM
